Assay results as given in the supplement of paper PMC3334620.
In all, about 33,000 sequences were measured (“E-score (-0.5 to 0.5)”: median about -0.0034, highest 2% from about 0.25 on). The list shows a part of the results.

What follows are sequences tested against T1, Yap3 (UniProt P38749) (assay: PBM E-score (8-mer binding enrichment) (E-score (-0.5 to 0.5)); higher = stronger / more preferred TF binding). Conditions: protein concentration: 100 nM; construct: GST-full length.
T1 sequence: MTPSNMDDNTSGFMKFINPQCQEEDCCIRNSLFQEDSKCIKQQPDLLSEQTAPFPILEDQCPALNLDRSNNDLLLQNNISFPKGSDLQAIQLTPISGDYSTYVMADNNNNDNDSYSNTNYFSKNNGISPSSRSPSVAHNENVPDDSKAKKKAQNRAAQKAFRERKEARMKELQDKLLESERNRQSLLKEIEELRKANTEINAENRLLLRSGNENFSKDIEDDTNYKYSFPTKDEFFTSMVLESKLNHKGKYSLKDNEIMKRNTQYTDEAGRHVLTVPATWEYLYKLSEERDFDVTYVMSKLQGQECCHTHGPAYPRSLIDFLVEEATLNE
Outline: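 GST-tagged yeast TFs (full-length or DNA-binding domain) were made by PURExpress in vitro transcription/translation and applied at about 100-200 nM to universal all-10-mer Agilent arrays. The arrays were made double-stranded by primer extension, on fresh or once-stripped slides. Bound protein was detected with fluorescent anti-GST, and scans were normalised with masliner. Each ungapped eight-base word, pooled with its reverse complement, received an E-score (modified Wilcoxon-Mann-Whitney statistic) from the Universal PBM Analysis Suite.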

Sequence	PBM E-score
AAACATCA	0.172
AGACGTTA	-0.0983
GACCTTGA	-0.0719
AGAATTCC	-0.00751
GCTACAAA	0.119
ATGCAACC	0.0638
ACGTTGAA	0.0903
TGTCAGAA	-0.0116
CTGGACCA	-0.00728
AAGAGATG	0.0281
AAGTTCGG	-0.0937
CATGCACG	-0.162
AAGGATGA	0.111
CACTATTC	0.216
ATCACGGA	0.157
GTCAACTA	0.24
ACAGCGGT	-0.0239
GGCGTTAA	-0.0643
CCGTGTCG	-0.17
ACAGAGCC	-0.163
CTGGCAGA	-0.0517
ACGAGTCT	-0.132
CACCAATC	0.0494
CACGTTAG	0.0507
CTACGTCA	-0.0902

Fetched one by one from above:
Sequence	PBM E-score
GACCTTGA	-0.0719
GGCGTTAA	-0.0643
AAGGATGA	0.111
AAACATCA	0.172
TGTCAGAA	-0.0116
CACGTTAG	0.0507
ATGCAACC	0.0638

The list continues.

Sequence	PBM E-score
AATGACCC	-0.0581
CATGTCAA	-0.0698
AGTTAACT	0.117
ATATTGGG	0.0718
CCAAAGCG	-0.1
GAATCAGC	-0.0767
CAGGCCAA	-0.223
AGAGCGCG	0.0467
ACAGGGTG	-0.126
CCCTATTA	-0.0452
ATCTCAAC	0.179
AATGTCGG	-0.0136
ACTCGATA	0.156
CATCGAAA	-0.0375
TATCATCA	0.18
CCCCTATA	-0.168
AATACGCG	0.0798
AAGAAACT	0.154
CGATCCCA	-0.149
ATCTGTTA	0.217
AGGGGGCA	-0.114
CCTTATCC	-0.188
ACGAGCAA	-0.0129
CCCCCTGA	-0.367
CAAAATGA	0.136

Sequence	PBM E-score
GTGGTATA	0.167
ATTATGGC	0.171
AACATAAT	0.334
ACACCACG	-0.0883
CAATGAAC	0.126
CAATTTTC	0.196
AGATCCTC	-0.0231
CTATCGTA	0.104
ACCATGAG	-0.00212
CGTTGGGA	-0.0536
TGAATAAA	0.106
GACAGTAA	0.128
ATGAAGGG	-0.199
ATGCGCCC	0.0511
AGCTGGAG	-0.217
ATCGTTTA	0.135
AGGGCTTG	-0.0222
CAAGCTAC	-0.0993
CGGGATAG	0.0402
GCCAGACC	-0.209
CTACGGAG	-0.0141
ACTCGCGA	0.132
GACGCGCC	-0.119
AGCAGCAG	-0.06
CGACCACA	-0.0771

Sequence	PBM E-score
CGCCGAAG	-0.129
ACCACTGG	0.0032
ACTGCAAT	0.106
GCCCAGGC	-0.257
ACAATTCC	0.0667
ACAACGAA	0.203
ACATTGGG	-0.0777
GTGGGATA	0.0881
ATCAGTGG	-0.0751
CTAACGCC	0.0636
TACTTAGA	0.0709
ATTCTACA	0.153
AAATTGGG	0.106
AGAGGGCC	-0.247
ACCAGGCA	-0.0335
CAAAATGC	0.0471
AGCCTGTC	-0.202
AATATGGC	0.0119
AGTGCACA	-0.0457
AGGGTTAT	0.0963
GCTATGTA	-0.097
CCATGAGA	0.057
TAACCTGA	0.0272
ATGTTTTA	0.047
AGCATCTG	-0.135

Sequence	PBM E-score
AGAGAGCC	-0.201
CCGCAGTC	-0.00761
CCTTACAG	-0.187
ACGAATCC	0.0796
CTTTTATA	-0.00621
TACAACCA	0.0559
AGCTCTCC	-0.0977
CCAAGCCC	-0.206
CAGTAACA	0.0576
GTTGCGGA	-0.0945
TTGATCAA	0.0696
ACGGACGA	0.027
CATACCGC	0.0322
CCTTTAGC	0.0123
ACCGATCC	-0.0315
AAACGTTT	0.112
CTGCACGA	-0.0162
GCCTCCAC	-0.237
AGCTCGTG	0.0246
GACACAAC	0.0342
GTCACCAA	-0.0738
AATGGGGA	0.00873
TGGGGGAA	-0.294
ACGCGCTG	-0.0575
CCACGGTA	-0.14

Sequence	PBM E-score
AATGGGCG	-0.158
AAGAGTTA	-0.0588
CGAGCCTA	-0.0627
AAACAGTA	0.132
GCATATGA	0.214
AAGCGCGC	0.14
ACGTGCTG	0.0393
GAAACCAA	0.108
CCTCGATC	0.00579
CGATACGC	0.0557
TCCGGGCA	-0.214
CCGAGTTC	0.0881
TCCTAGAA	-0.0619
ATAGGGCC	-0.174
ACCCGTCC	-0.136
CTGTGCCC	-0.163
AGTGTTCA	0.19
GAGGAGAC	-0.0755
ATATGACC	-0.054
CTTCATGA	0.168
CTACGTTC	-0.112
CTCTGTAC	0.0373
ATCAGAAT	0.0724
ACGCACCC	-0.243
AGCAATCA	0.116

Sequence	PBM E-score
GAACGCTC	-0.11
AGCCCGCC	-0.25
GAAGCCCC	-0.344
GAAATACC	0.0809
CAGCGAGC	-0.041
ATAGGAAT	0.0277
AGGCAGGG	-0.116
AGGAGAGG	-0.201
CAGCATGG	-0.0172
GCAACTAA	0.195
CGTTTCGC	0.0985
TCCCTCGA	-0.106
CGAACGCG	-0.00679
AGTAAACA	0.138
CAAGAAGC	0.0867
AGGCCTCA	-0.167
GTCGTCTA	0.00554
ACTAACGA	0.156
CGTCGTGA	-0.208
GCCCCGCC	-0.0998
CCTTCATA	0.0542
GTGCGCAA	-0.0538
